Experiment [1] concerns the target T1, Translationally controlled tumor protein (neonatal rat ventricular myocytes) (rat (endogenous in NRVMs)) (UniProt P63029).
T1 sequence: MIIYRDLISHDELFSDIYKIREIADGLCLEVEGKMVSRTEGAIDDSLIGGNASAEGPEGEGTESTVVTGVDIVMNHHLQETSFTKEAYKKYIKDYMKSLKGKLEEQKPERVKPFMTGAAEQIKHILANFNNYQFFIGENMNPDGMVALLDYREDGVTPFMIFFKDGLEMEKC
The experiment is described as follows: proximity ligation; Duolink PLA in fixed NRVMs, endogenous proteins; signal when less than 40 nm apart; cells transfected with control siRNA or TCTP siRNA.

Protein sequences, listed by entry. Tags and fused reporters are not part of them.
UniProt P13693: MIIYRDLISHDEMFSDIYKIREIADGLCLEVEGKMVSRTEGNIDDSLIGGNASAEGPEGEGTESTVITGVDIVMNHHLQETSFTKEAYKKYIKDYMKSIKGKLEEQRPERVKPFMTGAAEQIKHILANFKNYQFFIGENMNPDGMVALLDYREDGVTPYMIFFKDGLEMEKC
UniProt P08050: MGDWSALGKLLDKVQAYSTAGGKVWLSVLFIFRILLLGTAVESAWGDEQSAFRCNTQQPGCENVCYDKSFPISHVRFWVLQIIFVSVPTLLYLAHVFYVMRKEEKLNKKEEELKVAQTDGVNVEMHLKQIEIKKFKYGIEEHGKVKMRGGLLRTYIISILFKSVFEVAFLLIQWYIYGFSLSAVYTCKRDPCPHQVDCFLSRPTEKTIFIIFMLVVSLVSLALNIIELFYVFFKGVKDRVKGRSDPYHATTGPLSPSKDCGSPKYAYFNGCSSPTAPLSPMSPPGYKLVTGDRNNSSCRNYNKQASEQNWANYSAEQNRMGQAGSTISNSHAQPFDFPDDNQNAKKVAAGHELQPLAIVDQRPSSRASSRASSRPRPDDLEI
UniProt P23242: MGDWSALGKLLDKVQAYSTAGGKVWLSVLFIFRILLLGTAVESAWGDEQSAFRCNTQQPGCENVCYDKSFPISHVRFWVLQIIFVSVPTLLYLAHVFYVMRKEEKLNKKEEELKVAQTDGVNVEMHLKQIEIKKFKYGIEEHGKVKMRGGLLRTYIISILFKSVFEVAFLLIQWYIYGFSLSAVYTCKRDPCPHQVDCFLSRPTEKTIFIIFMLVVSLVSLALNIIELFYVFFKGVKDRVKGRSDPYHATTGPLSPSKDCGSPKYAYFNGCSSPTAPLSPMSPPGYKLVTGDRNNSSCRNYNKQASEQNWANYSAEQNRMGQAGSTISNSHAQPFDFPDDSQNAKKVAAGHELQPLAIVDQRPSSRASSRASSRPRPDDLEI
UniProt P17302: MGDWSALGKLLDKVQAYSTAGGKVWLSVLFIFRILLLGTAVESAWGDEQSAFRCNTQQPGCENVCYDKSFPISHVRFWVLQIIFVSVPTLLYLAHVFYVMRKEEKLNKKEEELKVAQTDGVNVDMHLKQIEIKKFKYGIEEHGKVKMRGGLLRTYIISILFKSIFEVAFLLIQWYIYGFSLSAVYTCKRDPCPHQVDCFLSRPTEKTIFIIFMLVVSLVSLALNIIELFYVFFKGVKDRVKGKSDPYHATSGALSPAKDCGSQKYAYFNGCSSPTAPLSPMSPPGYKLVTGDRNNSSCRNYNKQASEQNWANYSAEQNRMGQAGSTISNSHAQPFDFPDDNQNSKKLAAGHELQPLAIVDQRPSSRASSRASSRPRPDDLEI

Experiment [2] concerns the target T2, Translationally controlled tumor protein (mouse heart) (mouse (endogenous in mouse heart left ventricle)) (UniProt P63028).
T2 sequence: T1 sequence
The experiment is described as follows: co-IP; mouse left ventricle lysate in IP Lysis Buffer (50 mM Tris-HCl pH 7.5, 150 mM NaCl, 5 mM EDTA, 1% NP-40); anti-TCTP antibody (PM107) overnight at 4°C, Dynabeads Protein G 1 h at 4°C; western blot with anti-Cx43 antibody. (In western blotting, separated proteins are transferred to a membrane and probed.)

Experiment [3] addresses T3, Translationally controlled tumor protein (human iPSC-derived cardiomyocytes) (human (endogenous in iPSC-CMs)) (UniProt P13693).
T3 sequence: T1 sequence with L13M, A42N, V67I, L99I, K107R, N130K, F159Y
The experiment is described as follows: proximity ligation; PLA in human iPSC-CMs, endogenous proteins; signal when less than 40 nm apart; negative control lacks the anti-Cx43 antibody.

Residue numbers refer to the chain shown, from its start. Results are given in words; binding and its absence hold for the method and conditions named. Binding seen in cells or lysates may run through a third protein. Some results given as binding are weak or reduced against the parent protein; the word gives no strength.

As to “Connexin 43 (neonatal rat ventricular myocytes) (from UniProt P08050 1-382)”, in experiment [1], the binding entry was “binds”.
Take “Connexin 43 (mouse heart) (from UniProt P23242 1-382)”: the binding result in experiment [2] is reported as “binds”.
“Connexin 43 (human iPSC-derived cardiomyocytes) (from UniProt P17302 1-382)”: the binding result in experiment [3] was “binds”.

For the origin of these results see paper PMC11965915.
